In article PMC9282853:
These are yes or no findings as the source states them, for the method shown. Binding seen in cells or lysates may run through a third protein. These calls come from enrichment with a bait or labelling near it, and not all partners need be listed. Where a sequence is shown, tags or fusion partners need not be part of it.

Target: T1, HA-tagged full-length Samd14 (sterile alpha motif domain-containing protein 14) (mouse) (UniProt Q8K070)
T1 sequence: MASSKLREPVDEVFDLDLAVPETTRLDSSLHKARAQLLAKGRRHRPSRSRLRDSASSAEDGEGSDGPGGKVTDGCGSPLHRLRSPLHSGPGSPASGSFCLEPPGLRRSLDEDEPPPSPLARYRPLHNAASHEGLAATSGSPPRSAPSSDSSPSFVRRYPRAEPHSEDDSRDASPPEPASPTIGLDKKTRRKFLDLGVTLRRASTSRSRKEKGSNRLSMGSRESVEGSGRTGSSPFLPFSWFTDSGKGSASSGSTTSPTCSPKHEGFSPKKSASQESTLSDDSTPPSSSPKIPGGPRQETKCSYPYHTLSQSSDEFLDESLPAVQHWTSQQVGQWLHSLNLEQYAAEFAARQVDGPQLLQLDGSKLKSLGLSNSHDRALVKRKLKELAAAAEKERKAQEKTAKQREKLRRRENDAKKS
Test: affinity purification with mass spectrometry; anti-HA agarose beads on lysates (1% NP-40 lysis buffer) of GFP-sorted G1E-ΔEnh cells expressing HA-Samd14 or empty vector; LC-MS/MS, N=3

Row | Substance | binding
1 | Capzα2 (F-actin capping protein α2 subunit), endogenous in G1E cells (from UniProt P47754 1-286) | binds
2 | Capzβ (F-actin capping protein β subunit), endogenous in G1E cells (from UniProt P47757 1-277) | binds
